The other results are listed elsewhere or left out.
What was measured:
Test in all cases: log2 fold change, soluble protein after heating vs DMSO (PISA); higher = thermal stabilisation; K562 cells, 10 uM, 30 min; active = over 0.2 and 3.5 SD of the protein, either way, in both replicates (recomputed)
[1] = compound: C1=CC=C(C=C1)[C@H](COC2=CC3=C(C=C2)NC(=O)N3)NC(=O)C4=CC=CN(C4=O)CC5=CC(=C(C=C5)F)F
Procedure, shortened: (§1)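 K562 cells at 2×10^6 cells/mL were exposed to 10 μM compound for 30 min, then aliquots were heated for 3 min across 48°C-58°C, pooled, and extracted in PBS containing 0.5% NP-40 at 4°C. The supernatant after 21,000xg for 90 min was taken as soluble protein and measured by TMTpro 16plex LC-MS/MS with channel sums equalised. Thermal stability is reported relative to control samples, with values from duplicates. Fold changes are given on a log2 scale.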

Chains of the proteins cited; added tags and fusions are not shown. Lines headed by an entry give the natural chain unless they say otherwise; changes in a name come on top.
UniProt A6NK58: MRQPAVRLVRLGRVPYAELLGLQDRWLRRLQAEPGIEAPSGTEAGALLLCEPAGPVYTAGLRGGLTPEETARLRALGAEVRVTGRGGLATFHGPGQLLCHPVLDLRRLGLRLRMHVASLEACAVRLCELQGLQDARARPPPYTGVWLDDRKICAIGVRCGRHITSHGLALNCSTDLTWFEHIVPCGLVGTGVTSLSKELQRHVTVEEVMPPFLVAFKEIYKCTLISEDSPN
UniProt P02750: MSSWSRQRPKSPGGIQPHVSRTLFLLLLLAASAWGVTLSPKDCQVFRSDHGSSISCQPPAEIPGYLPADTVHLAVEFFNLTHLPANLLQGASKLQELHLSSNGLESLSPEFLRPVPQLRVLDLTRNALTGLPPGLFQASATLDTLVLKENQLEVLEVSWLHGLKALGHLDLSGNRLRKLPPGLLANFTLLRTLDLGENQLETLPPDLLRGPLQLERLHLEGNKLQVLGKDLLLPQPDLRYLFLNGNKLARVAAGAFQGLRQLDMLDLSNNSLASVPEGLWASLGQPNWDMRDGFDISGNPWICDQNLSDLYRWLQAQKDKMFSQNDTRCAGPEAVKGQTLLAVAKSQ
UniProt Q6P1M3: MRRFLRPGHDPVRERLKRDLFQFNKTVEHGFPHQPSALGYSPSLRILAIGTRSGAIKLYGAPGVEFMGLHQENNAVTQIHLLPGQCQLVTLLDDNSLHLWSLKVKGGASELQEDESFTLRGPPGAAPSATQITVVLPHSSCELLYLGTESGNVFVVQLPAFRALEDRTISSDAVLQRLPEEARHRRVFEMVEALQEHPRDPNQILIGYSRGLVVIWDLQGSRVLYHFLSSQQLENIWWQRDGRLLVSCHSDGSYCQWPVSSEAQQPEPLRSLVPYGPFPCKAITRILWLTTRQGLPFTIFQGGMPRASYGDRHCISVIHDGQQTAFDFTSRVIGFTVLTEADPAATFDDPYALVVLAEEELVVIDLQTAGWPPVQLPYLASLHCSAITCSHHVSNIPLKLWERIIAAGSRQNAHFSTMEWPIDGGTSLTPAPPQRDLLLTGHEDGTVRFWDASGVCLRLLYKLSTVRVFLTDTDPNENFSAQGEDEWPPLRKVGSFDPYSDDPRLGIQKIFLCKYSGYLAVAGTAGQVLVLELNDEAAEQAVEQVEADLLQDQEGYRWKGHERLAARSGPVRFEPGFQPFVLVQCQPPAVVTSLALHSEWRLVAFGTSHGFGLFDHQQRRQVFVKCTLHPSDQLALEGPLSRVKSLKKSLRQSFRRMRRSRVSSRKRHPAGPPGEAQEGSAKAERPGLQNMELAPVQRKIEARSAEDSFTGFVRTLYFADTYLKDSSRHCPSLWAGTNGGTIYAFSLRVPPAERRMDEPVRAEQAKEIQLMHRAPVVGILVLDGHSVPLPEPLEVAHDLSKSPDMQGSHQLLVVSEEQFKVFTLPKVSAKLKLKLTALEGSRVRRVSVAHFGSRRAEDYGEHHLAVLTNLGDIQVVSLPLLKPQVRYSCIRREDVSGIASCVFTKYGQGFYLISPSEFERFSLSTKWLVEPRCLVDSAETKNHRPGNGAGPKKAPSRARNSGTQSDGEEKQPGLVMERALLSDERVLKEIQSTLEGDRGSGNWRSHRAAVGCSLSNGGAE
UniProt Q9GZZ8: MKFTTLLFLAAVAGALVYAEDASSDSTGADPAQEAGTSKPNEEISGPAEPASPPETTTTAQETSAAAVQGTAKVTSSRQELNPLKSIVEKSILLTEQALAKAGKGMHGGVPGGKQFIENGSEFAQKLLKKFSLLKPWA
UniProt P06858: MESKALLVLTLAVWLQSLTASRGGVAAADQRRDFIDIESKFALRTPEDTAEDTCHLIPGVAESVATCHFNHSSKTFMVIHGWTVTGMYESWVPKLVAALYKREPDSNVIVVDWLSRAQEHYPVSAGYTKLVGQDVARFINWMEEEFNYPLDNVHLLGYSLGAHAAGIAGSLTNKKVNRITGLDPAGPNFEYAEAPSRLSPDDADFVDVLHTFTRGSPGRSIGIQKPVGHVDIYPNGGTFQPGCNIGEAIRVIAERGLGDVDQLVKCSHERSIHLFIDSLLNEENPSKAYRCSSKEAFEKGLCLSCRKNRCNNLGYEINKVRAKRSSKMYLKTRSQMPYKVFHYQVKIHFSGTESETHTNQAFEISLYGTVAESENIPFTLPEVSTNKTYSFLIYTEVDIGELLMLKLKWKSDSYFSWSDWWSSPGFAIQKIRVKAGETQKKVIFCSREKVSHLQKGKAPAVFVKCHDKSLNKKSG
UniProt Q86WU2: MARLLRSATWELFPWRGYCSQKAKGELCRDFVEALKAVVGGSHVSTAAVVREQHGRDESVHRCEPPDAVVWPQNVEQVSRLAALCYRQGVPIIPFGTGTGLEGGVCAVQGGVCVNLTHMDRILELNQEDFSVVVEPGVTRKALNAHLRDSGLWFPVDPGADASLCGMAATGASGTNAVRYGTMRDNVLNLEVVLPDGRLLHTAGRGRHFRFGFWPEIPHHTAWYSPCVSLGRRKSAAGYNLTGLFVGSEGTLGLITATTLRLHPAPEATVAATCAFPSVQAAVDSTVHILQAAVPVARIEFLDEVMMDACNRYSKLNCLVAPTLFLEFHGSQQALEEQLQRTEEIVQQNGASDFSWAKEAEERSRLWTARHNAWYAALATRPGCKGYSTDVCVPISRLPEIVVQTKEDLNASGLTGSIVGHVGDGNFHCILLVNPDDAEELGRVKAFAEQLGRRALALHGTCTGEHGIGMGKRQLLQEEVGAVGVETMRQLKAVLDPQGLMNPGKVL
UniProt P80188: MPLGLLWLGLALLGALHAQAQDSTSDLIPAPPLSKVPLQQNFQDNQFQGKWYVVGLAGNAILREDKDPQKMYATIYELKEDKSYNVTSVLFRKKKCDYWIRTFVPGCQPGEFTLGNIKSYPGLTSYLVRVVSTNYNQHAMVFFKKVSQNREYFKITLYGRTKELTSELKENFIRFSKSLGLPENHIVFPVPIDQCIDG
UniProt Q6ZV70: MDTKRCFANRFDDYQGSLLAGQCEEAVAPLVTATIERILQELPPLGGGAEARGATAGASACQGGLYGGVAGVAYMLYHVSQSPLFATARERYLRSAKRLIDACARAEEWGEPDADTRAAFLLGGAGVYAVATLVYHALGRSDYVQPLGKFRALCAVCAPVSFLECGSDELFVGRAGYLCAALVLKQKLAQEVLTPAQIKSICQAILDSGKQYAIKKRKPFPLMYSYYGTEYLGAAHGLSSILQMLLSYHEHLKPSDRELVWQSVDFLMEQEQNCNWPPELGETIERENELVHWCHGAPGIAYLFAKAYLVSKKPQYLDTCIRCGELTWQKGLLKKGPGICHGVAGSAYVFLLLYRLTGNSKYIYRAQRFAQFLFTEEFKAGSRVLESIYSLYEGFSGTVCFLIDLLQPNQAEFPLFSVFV
UniProt Q643R3: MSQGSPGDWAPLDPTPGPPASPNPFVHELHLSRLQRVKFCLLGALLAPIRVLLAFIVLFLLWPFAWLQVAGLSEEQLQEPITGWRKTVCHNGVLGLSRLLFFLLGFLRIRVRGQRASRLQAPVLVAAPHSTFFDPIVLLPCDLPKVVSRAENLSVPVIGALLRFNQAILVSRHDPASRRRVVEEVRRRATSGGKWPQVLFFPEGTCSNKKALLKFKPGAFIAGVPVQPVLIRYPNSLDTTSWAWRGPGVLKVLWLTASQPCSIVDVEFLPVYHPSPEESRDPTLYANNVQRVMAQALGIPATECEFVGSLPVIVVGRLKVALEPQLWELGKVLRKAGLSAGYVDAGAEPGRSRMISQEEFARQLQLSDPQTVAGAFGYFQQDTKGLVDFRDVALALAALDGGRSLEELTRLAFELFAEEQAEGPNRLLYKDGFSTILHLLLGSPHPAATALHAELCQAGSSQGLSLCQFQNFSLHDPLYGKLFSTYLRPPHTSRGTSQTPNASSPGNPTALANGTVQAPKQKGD
UniProt Q9BT23: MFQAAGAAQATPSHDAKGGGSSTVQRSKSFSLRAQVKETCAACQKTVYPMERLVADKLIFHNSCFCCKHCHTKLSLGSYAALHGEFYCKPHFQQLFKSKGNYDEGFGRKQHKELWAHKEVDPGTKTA
UniProt Q6P1Q0: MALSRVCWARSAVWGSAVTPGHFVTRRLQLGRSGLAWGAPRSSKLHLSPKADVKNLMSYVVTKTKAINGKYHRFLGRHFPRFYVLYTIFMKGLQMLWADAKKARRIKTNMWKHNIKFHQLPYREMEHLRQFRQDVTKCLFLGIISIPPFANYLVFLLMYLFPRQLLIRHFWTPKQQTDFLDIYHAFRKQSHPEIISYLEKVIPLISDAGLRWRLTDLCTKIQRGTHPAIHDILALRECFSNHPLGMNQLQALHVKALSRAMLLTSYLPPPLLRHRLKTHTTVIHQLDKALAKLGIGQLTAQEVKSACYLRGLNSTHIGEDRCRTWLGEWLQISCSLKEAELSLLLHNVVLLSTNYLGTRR
UniProt P49916: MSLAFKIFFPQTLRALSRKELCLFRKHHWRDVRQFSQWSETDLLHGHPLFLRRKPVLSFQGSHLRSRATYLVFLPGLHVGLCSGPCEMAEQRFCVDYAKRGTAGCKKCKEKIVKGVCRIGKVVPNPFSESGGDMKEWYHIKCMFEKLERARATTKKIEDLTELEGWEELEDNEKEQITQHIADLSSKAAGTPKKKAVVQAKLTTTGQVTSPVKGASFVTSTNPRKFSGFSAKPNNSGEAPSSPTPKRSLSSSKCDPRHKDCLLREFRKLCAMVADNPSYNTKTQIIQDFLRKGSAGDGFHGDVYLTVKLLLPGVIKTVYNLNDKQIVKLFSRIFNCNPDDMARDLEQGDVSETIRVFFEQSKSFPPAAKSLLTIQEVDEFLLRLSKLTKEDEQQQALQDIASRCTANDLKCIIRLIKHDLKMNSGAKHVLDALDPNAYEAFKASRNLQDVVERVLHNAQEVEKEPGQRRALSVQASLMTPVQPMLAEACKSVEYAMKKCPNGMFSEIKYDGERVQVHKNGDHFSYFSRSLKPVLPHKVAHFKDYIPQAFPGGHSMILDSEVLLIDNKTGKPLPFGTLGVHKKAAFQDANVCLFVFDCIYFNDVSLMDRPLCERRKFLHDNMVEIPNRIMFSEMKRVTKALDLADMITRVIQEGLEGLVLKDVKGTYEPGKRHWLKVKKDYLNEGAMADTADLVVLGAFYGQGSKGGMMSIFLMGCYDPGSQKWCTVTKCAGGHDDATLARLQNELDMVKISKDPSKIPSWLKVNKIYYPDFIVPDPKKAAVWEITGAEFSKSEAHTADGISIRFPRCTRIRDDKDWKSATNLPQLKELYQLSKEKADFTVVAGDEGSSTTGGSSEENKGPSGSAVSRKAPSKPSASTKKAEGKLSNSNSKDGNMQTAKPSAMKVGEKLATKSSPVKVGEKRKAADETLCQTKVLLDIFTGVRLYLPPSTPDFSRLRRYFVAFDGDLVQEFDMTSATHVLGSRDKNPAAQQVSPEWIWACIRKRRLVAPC
UniProt Q6ZUX7: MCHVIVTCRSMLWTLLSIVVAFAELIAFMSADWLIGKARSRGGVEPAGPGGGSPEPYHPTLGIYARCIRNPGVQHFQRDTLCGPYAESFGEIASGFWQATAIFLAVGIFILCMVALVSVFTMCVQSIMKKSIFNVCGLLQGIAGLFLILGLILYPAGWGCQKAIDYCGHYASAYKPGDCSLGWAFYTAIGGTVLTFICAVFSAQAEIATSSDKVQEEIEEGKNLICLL
UniProt Q7Z4F1: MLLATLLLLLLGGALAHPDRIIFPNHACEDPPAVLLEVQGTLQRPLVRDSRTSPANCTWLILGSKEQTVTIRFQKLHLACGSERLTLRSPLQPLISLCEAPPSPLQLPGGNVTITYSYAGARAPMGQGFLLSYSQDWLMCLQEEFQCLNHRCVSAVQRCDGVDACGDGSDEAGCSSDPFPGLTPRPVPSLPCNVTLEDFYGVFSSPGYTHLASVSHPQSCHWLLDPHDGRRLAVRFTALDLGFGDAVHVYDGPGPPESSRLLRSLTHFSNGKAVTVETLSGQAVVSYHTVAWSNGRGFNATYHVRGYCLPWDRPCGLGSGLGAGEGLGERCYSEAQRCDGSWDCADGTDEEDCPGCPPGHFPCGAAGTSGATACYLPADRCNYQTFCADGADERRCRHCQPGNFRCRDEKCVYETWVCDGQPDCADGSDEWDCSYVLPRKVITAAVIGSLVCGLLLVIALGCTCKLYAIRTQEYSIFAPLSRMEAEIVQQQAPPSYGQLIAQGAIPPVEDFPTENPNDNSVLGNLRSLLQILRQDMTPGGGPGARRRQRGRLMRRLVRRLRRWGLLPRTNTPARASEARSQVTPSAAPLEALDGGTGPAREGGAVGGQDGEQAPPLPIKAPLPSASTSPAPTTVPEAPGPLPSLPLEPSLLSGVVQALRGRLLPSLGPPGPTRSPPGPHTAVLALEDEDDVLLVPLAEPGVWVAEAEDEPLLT
UniProt Q9BQE6: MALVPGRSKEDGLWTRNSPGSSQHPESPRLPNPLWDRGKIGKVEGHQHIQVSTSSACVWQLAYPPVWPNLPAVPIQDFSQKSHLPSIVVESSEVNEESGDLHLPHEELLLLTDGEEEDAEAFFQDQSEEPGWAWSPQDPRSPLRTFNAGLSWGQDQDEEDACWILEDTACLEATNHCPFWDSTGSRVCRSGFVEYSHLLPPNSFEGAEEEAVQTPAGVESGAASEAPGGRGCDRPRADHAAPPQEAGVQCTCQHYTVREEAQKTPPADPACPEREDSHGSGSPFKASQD

[2] = compound: CC1=C(SC2=C1C(=N[C@H](C3=NN=C(N32)C)CC(=O)N)C4=CC=C(C=C4)Cl)C
Procedure, shortened: as §1

[3] = compound: c1ccc([C@@H]2C[C@H]2NC2CCNCC2)cc1
Procedure, shortened: as §1

[4] = compound: CC1=C2C(=CC=C1)N=C(N(C2=O)C3=CC=CC=C3C)CN4C=NC5=C(N=CN=C54)N
Procedure, shortened: as §1

[5] = compound: Cc1sc2c(c1C)C(c1ccc(Cl)cc1)=N[C@@H](CC(=O)OC(C)(C)C)c1nnc(C)n1-2
Procedure, shortened: as §1

Row | Target | log2 fold change [1] | log2 fold change [2] | log2 fold change [3] | log2 fold change [4] | log2 fold change [5]
1 | LAMA2 (UniProt P24043) | inactive: -0.172 | inactive: -0.12 | inactive: -0.024 |  | 
2 | LIPT2 (UniProt A6NK58) |  |  |  | inactive: -0.002 | inactive: 0.004
3 | LCP2 (UniProt Q13094) | inactive: -0.03 |  |  | inactive: 0.033 | inactive: 0.023
4 | LIG4 (UniProt P49917) |  |  |  | inactive: 0.175 | 
5 | LRG1 (UniProt P02750) |  | inactive: -0.139 | inactive: -0.256 | inactive: 0.211 | inactive: -0.159
6 | LLGL2 (UniProt Q6P1M3) | inactive: -0.02 | inactive: -0.021 | inactive: 0.025 |  | 
7 | LACRT (UniProt Q9GZZ8) | inactive: 0.172 | inactive: 0.05 | inactive: 0.246 | inactive: -0.294 | 
8 | LPL (UniProt P06858) |  | inactive: 0.037 | inactive: 0.019 | inactive: -0.157 | inactive: -0.039
9 | LDHD (UniProt Q86WU2) |  | inactive: 0.066 | inactive: 0.11 |  | 
10 | LIN28A (UniProt Q9H9Z2) | inactive: -0.16 | inactive: -0.159 | inactive: 0.187 |  | 
11 | LCN2 isoform 2 (UniProt P80188) |  |  |  |  | inactive: 0.029
12 | LCMT2 (UniProt O60294) | inactive: 0 | inactive: 0.062 | inactive: -0.072 | inactive: 0.201 | 
13 | LANCL3 (UniProt Q6ZV70) | inactive: 0.047 | inactive: -0.084 | inactive: 0.178 |  | 
14 | LPCAT4 (UniProt Q643R3) |  | inactive: 0 | inactive: -0.402 |  | 
15 | LRFN4 (UniProt Q6PJG9) | inactive: -0.03 | inactive: 0.06 | inactive: -0.06 |  | inactive: -0.05
16 | LIMD2 (UniProt Q9BT23) |  | inactive: 0.074 | inactive: 0.008 |  | inactive: 0.107
17 | LAPTM5 (UniProt Q13571) | inactive: 0.021 | inactive: 0.088 | inactive: -0.062 |  | inactive: 0.032
18 | LAMA5 (UniProt O15230) |  | inactive: -0.123 | inactive: 0.141 | inactive: -0.072 | inactive: 0.236
19 | LETMD1 isoform 7 (UniProt Q6P1Q0) | inactive: 0.037 |  |  |  | inactive: 0.01
20 | LIG3 (UniProt P49916) |  | inactive: -0.153 | inactive: -0.12 |  | 
21 | LLGL1 (UniProt Q15334) |  | inactive: -0.109 | inactive: 0.044 |  | inactive: -0.132
22 | LHFPL2 (UniProt Q6ZUX7) |  |  |  | inactive: 0.011 | inactive: 0.185
23 | LRP10 (UniProt Q7Z4F1) | inactive: 0 | inactive: -0.075 | inactive: 0.226 |  | 
24 | LAMB2 (UniProt P55268) |  |  |  |  | inactive: -0.032
25 | LBHD1 (UniProt Q9BQE6) |  | inactive: -0.242 | inactive: 0.087 |  | 
26 | L1TD1 (UniProt Q5T7N2) |  | inactive: -0.043 | inactive: 0.087 |  | inactive: 0.097

Retrieved one by one from the entries so far (2):
Row | Target | log2 fold change [1] | log2 fold change [2] | log2 fold change [3] | log2 fold change [4] | log2 fold change [5]
24 | LAMB2 (UniProt P55268) |  |  |  |  | inactive: -0.032
17 | LAPTM5 (UniProt Q13571) | inactive: 0.021 | inactive: 0.088 | inactive: -0.062 |  | inactive: 0.032

— the supplement of paper PMC10849652
